Assay results: publication PMC9403361
These are yes or no findings as the source states them, for the method shown. In cells and extracts the contact can be indirect. Some binding calls cover weakened binding; strength is not graded here. For part of these data: Sequences can lack the tags named with a protein.

By UniProt entry, the sequences of proteins in these tests, tags left out. Where a name states a change or a piece, a line headed by the entry shows the natural chain unless it says otherwise. Residues count along the entry.
UniProt Q15075, residues 1-209: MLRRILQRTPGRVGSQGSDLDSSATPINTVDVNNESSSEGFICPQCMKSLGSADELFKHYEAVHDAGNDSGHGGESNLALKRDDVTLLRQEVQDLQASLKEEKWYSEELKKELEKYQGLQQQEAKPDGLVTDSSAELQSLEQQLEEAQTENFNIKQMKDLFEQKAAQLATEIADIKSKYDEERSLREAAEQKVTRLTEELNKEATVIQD
UniProt P20339: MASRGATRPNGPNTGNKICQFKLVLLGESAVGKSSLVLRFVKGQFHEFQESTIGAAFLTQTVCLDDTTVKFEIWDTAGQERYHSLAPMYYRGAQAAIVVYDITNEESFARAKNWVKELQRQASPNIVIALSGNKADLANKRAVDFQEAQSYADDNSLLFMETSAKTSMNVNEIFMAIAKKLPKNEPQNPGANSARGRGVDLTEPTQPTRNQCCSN

Tests used:
Assay in all cases: pull-down; GST-effector fusion protein on glutathione-Sepharose beads incubated with clarified lysate of transfected cells for 1 h at 4 °C; lysis buffer 20 mM Hepes pH 7.4, 100 mM NaCl, 5 mM MgCl2, 0.1% NP40, 10% glycerol, 1 mM DTT; washed 3 times with PBS-T (1% Triton X-100); immunoblot with anti-Myc or anti-Rab antibody, bands quantified with LI-COR Odyssey; only the target purified
[1] = biological target: GST fusion protein of EEA1 RBD-N (aa1-209) (UniProt Q15075)
[2] = biological target: T1, GST fusion protein of Rabenosyn-5 RBD-N (aa1-40) (UniProt Q9H1K0)
T1 sequence: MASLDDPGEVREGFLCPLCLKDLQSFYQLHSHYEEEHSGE

[3] = biological target: T2, GST fusion protein of Rabenosyn-5 RBD-C (aa728-784) (UniProt Q9H1K0)
T2 sequence: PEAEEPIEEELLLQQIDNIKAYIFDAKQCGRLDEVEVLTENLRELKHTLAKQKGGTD

Measured: binding

Rab5:Q79L (from UniProt P20339 1-215)
binds: all assays above
